Reference: PMC7878863
Read-outs that look alike come from different tables or passages of the source. These are yes or no findings as the source states them, for the method shown. In cells and extracts the contact can be indirect. Here binding means that the protein was enriched with, or labelled near, the bait; the list need not be complete. Where a sequence is shown, tags or fusion partners need not be part of it.

Amino acid sequences for entries named in this document (tags omitted). A change or cut given only in a name is not applied to a line headed by its entry. Residues count along the entry.
UniProt P02545, residues 1-646: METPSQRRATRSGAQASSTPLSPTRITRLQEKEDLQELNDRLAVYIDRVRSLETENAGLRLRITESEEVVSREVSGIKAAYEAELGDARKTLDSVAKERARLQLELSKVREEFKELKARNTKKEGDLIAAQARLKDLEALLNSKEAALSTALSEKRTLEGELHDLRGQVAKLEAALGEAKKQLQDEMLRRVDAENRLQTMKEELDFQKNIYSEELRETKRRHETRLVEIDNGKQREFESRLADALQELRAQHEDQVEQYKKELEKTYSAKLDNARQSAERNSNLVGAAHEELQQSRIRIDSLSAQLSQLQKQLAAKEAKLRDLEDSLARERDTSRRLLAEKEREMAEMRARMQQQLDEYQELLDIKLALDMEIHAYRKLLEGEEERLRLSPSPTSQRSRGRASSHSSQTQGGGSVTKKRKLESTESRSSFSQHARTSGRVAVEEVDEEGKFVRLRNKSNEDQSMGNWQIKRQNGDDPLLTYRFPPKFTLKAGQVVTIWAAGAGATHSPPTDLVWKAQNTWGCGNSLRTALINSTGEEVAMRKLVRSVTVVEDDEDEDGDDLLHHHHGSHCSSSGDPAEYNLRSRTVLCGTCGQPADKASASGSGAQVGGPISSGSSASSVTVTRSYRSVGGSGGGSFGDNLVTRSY
UniProt Q08554: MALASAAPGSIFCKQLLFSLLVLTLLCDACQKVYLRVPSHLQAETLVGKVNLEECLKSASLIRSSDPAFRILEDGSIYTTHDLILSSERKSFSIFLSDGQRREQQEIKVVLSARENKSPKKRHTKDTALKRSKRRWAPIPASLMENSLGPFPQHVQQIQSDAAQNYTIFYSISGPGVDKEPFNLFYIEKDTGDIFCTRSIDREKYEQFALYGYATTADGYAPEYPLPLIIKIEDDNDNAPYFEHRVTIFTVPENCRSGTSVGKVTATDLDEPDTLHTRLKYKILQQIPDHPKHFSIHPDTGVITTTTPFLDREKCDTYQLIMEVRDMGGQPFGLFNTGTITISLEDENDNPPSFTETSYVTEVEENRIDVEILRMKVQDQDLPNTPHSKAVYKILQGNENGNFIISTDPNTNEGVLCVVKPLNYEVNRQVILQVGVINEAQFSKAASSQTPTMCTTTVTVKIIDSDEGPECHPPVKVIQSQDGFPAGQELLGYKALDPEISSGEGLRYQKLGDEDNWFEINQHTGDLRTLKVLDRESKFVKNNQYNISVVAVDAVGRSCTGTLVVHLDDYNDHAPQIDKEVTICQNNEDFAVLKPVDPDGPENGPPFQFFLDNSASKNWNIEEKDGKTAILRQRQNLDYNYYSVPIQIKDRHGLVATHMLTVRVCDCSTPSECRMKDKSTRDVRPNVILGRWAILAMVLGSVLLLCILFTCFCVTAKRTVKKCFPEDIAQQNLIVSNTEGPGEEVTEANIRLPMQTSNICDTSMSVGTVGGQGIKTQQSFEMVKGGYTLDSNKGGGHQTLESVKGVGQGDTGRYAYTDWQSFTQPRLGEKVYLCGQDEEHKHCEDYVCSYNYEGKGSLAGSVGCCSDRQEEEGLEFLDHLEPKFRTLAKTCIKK
UniProt Q02413, residues 50-1049: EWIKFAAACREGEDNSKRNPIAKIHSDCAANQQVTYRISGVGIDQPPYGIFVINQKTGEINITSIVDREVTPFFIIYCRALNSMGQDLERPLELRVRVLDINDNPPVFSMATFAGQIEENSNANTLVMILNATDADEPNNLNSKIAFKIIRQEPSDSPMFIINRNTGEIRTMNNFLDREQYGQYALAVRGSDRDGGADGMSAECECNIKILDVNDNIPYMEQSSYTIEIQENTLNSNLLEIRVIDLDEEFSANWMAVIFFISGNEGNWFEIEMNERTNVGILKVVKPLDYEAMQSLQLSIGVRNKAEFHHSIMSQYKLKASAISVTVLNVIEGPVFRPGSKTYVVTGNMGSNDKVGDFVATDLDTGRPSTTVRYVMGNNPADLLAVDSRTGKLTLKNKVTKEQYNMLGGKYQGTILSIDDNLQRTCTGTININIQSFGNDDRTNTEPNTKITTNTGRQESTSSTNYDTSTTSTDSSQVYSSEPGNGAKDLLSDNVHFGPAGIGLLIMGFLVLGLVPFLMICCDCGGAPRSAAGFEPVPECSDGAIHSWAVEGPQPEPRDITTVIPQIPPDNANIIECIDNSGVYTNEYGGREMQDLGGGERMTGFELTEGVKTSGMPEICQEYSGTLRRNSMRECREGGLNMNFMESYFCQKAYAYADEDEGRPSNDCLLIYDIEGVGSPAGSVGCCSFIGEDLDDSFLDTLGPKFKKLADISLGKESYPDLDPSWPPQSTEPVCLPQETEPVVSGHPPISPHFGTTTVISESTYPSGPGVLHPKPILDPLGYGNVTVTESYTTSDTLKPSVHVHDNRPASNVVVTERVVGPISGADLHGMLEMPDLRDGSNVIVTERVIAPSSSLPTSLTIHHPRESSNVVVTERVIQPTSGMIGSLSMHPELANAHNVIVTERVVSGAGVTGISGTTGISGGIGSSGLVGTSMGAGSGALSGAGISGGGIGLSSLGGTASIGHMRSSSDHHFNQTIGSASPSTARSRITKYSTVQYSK
UniProt P11142: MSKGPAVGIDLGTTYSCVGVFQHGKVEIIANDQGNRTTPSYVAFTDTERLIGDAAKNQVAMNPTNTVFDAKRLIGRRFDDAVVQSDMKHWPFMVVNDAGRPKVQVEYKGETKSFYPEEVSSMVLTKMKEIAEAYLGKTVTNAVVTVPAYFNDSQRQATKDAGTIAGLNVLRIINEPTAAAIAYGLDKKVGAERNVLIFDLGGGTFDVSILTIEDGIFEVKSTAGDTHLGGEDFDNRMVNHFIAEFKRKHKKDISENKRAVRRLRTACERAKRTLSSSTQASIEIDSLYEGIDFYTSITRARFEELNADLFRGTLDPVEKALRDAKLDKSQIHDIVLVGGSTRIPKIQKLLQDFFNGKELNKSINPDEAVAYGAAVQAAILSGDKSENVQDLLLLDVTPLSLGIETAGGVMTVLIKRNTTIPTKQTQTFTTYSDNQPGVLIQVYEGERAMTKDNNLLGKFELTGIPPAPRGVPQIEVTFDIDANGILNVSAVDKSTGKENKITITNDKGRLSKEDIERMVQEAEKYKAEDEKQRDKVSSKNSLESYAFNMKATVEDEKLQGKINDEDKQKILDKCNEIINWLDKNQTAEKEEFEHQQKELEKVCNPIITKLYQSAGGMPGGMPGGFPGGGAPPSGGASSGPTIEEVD
UniProt P04264: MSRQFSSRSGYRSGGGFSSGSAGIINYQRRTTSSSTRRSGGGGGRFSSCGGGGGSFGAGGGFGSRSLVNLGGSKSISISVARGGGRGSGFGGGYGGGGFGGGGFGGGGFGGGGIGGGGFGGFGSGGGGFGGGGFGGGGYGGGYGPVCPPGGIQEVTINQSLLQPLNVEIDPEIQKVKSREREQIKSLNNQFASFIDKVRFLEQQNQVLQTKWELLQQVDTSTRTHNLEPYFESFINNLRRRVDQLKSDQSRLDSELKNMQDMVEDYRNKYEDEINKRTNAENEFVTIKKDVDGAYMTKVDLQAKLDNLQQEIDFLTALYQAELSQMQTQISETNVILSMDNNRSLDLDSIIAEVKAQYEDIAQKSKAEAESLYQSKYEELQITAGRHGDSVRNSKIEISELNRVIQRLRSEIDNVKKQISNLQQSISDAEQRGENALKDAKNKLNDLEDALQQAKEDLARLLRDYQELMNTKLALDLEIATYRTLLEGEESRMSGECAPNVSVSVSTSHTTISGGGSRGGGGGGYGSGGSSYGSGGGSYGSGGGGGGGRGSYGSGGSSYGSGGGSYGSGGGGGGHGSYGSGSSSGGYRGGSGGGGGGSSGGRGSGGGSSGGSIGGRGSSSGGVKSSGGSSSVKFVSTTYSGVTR
UniProt P35908: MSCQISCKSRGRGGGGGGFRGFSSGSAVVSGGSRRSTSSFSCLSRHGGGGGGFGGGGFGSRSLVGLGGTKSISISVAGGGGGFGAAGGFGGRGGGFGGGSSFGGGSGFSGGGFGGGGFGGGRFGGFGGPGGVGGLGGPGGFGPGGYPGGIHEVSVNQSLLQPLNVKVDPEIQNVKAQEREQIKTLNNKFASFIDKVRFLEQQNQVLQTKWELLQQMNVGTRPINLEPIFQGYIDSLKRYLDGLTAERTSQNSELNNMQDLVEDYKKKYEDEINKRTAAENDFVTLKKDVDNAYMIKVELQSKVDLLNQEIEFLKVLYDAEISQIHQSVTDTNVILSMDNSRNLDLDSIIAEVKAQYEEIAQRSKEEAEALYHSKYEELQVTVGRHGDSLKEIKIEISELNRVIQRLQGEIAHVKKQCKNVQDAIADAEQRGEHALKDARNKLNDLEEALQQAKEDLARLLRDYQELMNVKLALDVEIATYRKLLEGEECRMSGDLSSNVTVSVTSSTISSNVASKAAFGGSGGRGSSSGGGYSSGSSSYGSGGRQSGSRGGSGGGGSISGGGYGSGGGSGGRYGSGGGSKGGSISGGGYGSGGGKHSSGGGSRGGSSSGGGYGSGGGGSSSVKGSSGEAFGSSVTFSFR
UniProt P28482: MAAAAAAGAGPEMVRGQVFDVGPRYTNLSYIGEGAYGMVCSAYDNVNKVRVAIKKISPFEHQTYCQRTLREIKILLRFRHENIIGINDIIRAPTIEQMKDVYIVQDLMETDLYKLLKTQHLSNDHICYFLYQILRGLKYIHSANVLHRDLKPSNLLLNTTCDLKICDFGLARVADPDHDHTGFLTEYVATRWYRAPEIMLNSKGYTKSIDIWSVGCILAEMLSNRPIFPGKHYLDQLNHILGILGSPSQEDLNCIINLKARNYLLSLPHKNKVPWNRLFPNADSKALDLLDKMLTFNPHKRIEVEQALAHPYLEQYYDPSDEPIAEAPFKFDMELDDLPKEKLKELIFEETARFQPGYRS
UniProt P14618: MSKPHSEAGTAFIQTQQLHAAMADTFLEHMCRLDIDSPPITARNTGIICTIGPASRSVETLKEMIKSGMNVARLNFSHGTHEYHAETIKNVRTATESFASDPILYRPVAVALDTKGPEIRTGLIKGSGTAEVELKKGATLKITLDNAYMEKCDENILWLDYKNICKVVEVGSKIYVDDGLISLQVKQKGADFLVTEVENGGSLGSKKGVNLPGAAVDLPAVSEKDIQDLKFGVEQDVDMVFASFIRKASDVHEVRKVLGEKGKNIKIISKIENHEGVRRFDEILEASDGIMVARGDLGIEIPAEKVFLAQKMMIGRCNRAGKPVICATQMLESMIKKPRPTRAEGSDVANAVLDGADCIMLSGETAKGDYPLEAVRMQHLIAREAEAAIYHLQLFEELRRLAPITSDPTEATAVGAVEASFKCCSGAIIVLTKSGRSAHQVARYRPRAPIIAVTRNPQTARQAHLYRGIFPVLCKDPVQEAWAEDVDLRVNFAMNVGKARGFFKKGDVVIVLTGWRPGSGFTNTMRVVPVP
UniProt P68363: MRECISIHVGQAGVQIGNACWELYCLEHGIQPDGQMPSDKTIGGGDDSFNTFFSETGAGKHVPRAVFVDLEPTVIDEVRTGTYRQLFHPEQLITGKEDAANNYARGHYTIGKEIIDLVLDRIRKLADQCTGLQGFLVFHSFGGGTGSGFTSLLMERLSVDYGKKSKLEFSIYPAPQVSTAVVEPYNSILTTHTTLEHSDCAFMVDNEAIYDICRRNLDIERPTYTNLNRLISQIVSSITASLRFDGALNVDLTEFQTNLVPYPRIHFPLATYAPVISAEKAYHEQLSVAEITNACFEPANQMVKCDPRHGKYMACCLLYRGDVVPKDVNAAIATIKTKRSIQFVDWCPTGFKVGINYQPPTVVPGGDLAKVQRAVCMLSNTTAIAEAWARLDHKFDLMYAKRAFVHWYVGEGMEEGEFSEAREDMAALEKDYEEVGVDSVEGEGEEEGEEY
UniProt P68371: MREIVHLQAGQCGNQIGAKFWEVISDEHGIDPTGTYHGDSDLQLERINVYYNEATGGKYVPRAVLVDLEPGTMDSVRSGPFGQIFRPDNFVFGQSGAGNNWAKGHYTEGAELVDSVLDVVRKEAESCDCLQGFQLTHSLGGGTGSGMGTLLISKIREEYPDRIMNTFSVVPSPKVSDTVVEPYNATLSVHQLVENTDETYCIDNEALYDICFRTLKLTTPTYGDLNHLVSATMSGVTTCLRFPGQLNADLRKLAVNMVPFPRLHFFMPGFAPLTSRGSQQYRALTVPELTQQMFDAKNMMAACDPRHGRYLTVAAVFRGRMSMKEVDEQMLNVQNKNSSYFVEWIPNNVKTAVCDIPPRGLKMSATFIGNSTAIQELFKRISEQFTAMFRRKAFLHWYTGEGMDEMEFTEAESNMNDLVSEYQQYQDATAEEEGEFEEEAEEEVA

T1: YFP-SPANX-A (human) (UniProt Q9NS26)
T1 sequence: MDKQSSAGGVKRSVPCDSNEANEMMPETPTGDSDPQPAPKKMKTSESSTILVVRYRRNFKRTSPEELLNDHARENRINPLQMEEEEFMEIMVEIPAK


Key:
YFP-SPANX-A (human) [1] = biological target: T1, YFP-SPANX-A (human); test: affinity purification with mass spectrometry; YFP-SPANX-A expressed in A375 cells, lysate in Co-IP buffer (100 mM NaCl, 20 mM Tris-HCl, 1% NP-40), pulled down in quadruplicate with GFP-Trap Magnetic Agarose; LC-MS/MS, label-free quantification; interactors identified in at least three of the four pull-downs
YFP-SPANX-A (human) [2] = biological target: T1, YFP-SPANX-A (human); test: as above; remark: listed apart in the source

Row | Molecule | binding (YFP-SPANX-A (human) [1]) | binding (YFP-SPANX-A (human) [2])
1 | Lamin-A/C (LMNA) (from UniProt P02545 1-646) | binds | 
2 | desmocollin-1 (DSC1) (from UniProt Q08554) | binds | 
3 | desmoglein-1 (DSG1) (from UniProt Q02413 50-1049) | binds | 
4 | heat shock cognate 71 kDa protein (HSPA8) (from UniProt P11142 1-646) | binds | 
5 | inosine-5-monophosphate dehydrogenase 2 (IMPDH2) (from UniProt P12268 1-514) (enzyme) | binds | 
6 | keratin KRT1 (from UniProt P04264 1-644) | binds | 
7 | keratin KRT2 (from UniProt P35908 1-639) | binds | 
8 | mitogen-activated protein kinase 1 (MAPK1) (from UniProt P28482 1-360) (enzyme) | binds | 
9 | pyruvate kinase (PKM) (from UniProt P14618 1-531) (enzyme) | binds | 
10 | α tubulin (TUBA1B) (from UniProt P68363 1-451) | binds | 
11 | β tubulin (TUBB4B) (from UniProt P68371 1-445) | binds | 
12 | keratin KRT9 (protein, UniProt P35527 1-623) MSCRQFSSSYLSRSGGGGGGGLGSGGSIRSSYSRFSSSGGGGGGGRFSSSSGYGGGSSRVCGRGGGGSFGYSYGGGSGGGFSASSLGGGFGGGSRGFGGASGGGYSSSGGFGGGFGGGSGGGFGGGYGSGFGGFGGFGGGAGGGDGGILTANEKSTMQELNSRLASYLDKVQALEEANNDLENKIQDWYDKKGPAAIQKNYSPYYNTIDDLKDQIVDLTVGNNKTLLDIDNTRMTLDDFRIKFEMEQNLRQGVDADINGLRQVLDNLTMEKSDLEMQYETLQEELMALKKNHKEEMSQLTGQNSGDVNVEINVAPGKDLTKTLNDMRQEYEQLIAKNRKDIENQYETQITQIEHEVSSSGQEVQSSAKEVTQLRHGVQELEIELQSQLSKKAALEKSLEDTKNRYCGQLQMIQEQISNLEAQITDVRQEIECQNQEYSLLLSIKMRLEKEIETYHNLLEGGQEDFESSGAGKIGLGGRGGSGGSYGRGSRGGSGGSYGGGGSGGGYGGGSGSRGGSGGSYGGGSGSGGGSGGGYGGGSGGGHSGGSGGGHSGGSGGNYGGGSGSGGGSGGGYGGGSGSRGGSGGSHGGGSGFGGESGGSYGGGEEASGSGGGYGGGSGKSSHS |  | binds
13 | F-box only protein 50 (NCCRP1) (protein, UniProt Q6ZVX7 1-275) MEEVREGHALGGGMEADGPASLQELPPSPRSPSPPPSPPPLPSPPSLPSPAAPEAPELPEPAQPSEAHARQLLLEEWGPLSGGLELPQRLTWKLLLLRRPLYRNLLRSPNPEGINIYEPAPPTGPTQRPLETLGNFRGWYIRTEKLQQNQSWTVKQQCVDLLAEGLWEELLDDEQPAITVMDWFEDSRLDACVYELHVWLLAADRRTVIAQHHVAPRTSGRGPPGRWVQVSHVFRHYGPGVRFIHFLHKAKNRMEPGGLRRTRVTDSSVSVQLRE |  | binds
